Data as given in PubChem BioAssay AID624246 (National Center for Advancing Translational Sciences (NCATS), 2012).
The whole screen tested about 370,000 compounds, of which about 100 (0.027%) were called active. This list was built around the results that the source calls inconclusive (neither active nor inactive); the mix of calls is not that of the screen. Calls come from the whole dose curve; as a rule, active = well fitted inhibition curve with a large enough effect in the polarisation, with a control signal flat; inconclusive = small, poorly fitted or top-dose-only effect, or effect the other way, or a change in a side signal; inactive = no such curve, though single readings can be large or run the other way; the % refers to the polarisation. Where the call is inconclusive, the potency comes from a doubtful curve fit. “Side channel” marks fits to a control or component signal instead of the main read-out.

Amino acid sequences for entries named in this document (tags omitted). A change or cut given only in a name is not applied to a line headed by its entry.
UniProt P11308: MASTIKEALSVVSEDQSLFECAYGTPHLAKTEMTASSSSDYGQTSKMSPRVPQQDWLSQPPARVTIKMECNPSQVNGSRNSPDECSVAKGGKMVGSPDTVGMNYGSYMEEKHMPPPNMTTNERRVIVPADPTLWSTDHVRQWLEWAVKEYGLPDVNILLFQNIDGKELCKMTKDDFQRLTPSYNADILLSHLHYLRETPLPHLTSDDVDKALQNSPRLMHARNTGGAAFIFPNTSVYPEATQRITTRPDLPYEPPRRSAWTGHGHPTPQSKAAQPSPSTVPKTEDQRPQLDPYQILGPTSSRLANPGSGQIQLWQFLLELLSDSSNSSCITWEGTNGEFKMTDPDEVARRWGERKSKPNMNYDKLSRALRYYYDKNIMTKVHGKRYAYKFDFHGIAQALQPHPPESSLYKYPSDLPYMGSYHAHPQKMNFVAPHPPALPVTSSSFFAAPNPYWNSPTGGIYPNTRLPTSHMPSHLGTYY

Target: Transcriptional regulator ERG (Homo sapiens) (UniProt P11308)
Experiment: qHTS for Small Molecule Inhibitors of the ERG Ets/DNA interaction; for FP activity, negative = inhibition: % of control where 0% means no effect
Conditions: fluorescence polarization, His-ERG Ets domain / labelled DNA; FP activity, negative = inhibition: at 76.9 µM (top of the series)
Summary of the method: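 His-tagged ERG Ets domain (1 uM in the protein solution; 300mM KCl, 50mM Tris-HCl, 1mM EDTA, 1mM DTT, pH 7.5) received compound, then a probe mix of 5 nM fluorescein-DNA and 100nM Texas-615-DNA. Fluorescence polarization was read for both dyes.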
Potency is the fitted concentration of half-maximal effect.

Row | Compound | Potency | FP activity, negative = inhibition
1 | CCCCn1c(N)c(N(CC(C)C)C(=O)c2ccc(S(=O)(=O)N3CCC(C)CC3)cc2)c(=O)[nH]c1=O | inconclusive: 44.7 µM [inhibitor, single point] | –
2 | CCOC(=O)c1ccc(NC(=O)CN2CCN(c3ccccc3)CC2)cc1 | inconclusive: 35.5 µM [quencher, side channel, partial curve, poor fit] | –
3 | CC(C)(C)C(=O)Nc1ccc(S(=O)(=O)Nc2nccs2)cc1 | inconclusive: 50.1 µM [inhibitor, single point] | –
4 | COc1cccc(NC(=O)NCCC2=CCCCC2)c1 | – | inactive: -3.02%
5 | CCOC(=O)c1ccc(N2C=C(C(=O)OC)C(c3ccc(OC)c(O)c3)C(C(=O)OC)=C2)cc1 | inconclusive: 50.1 µM [inhibitor, single point] | –
6 | COc1cc(CCC(=O)OCC(=O)NC2CCCC(C)C2C)cc(OC)c1OC (stereo not given) | inconclusive: 11.2 µM [inhibitor, single point] | –
7 | Oc1ccc(-c2csc(-c3ccccc3)n2)cc1O | – | inactive: -0.66%
8 | CCOC(=O)c1sc(Nc2nc3c(OC)cccc3s2)cc1C | inconclusive: 22.4 µM [quencher, side channel, partial curve, poor fit] | –
9 | COc1ccccc1NS(=O)(=O)c1cc(C(=O)N2CCCC2)ccc1C | inconclusive: 6.31 µM [inhibitor, single point] | –
10 | c1ccc(-n2nnc(-c3cccnc3)n2)cc1 | – | inactive: -7.05%
11 | CN(C(=O)CSc1nc(-c2ccccc2)c(-c2ccccc2)o1)C1CCS(=O)(=O)C1 (stereo not given) | inconclusive: 0.794 µM [inhibitor, full curve, poor fit] | –
12 | CCCCn1c(N)c(N(CC)C(=O)c2cnc(C)cn2)c(=O)[nH]c1=O | inconclusive: 35.5 µM [inhibitor, single point] | –
13 | COc1ccc(C(=O)c2cccc(C(=O)c3ccc(OC)c(C)c3)c2)cc1C | inconclusive: 7.08 µM [inhibitor, single point] | –
14 | Cc1cnccc1CNC(=O)CC1C(=O)NCCN1CC(C)(C)C (stereo not given) | inconclusive: 50.1 µM [inhibitor, single point] | –
15 | Cc1cccc(NC2(C(=O)O)CCCC2)c1 | inconclusive: 50.1 µM [inhibitor, single point] | –
16 | CCCc1cc(-n2ccnc2)n2c(nc3ccccc32)c1C#N | inconclusive: 31.6 µM [fluorescent, side channel, single point] | –
17 | O=C(COC(=O)c1ccc(Br)cc1)NCCN1C(=O)CSC1=O | inconclusive: 3.98 µM [quencher, side channel, full curve, poor fit] | –
18 | Cc1cccc(C(=O)NCCNc2nc3cc(C)c(C)cc3cc2C)c1 | inconclusive: 39.8 µM [inhibitor, single point] | –
19 | O=C(N/N=C/c1ccccc1Cl)c1[nH]c2ccc(Br)cc2c1-c1ccccc1 | inconclusive: 14.1 µM [inhibitor, partial curve, poor fit] | –
20 | COc1cccc(-c2nn(C)c3sc(C(=O)NCc4ccc(OC)cc4OC)cc23)c1 | inconclusive: 100 µM [inhibitor, single point] | –

Row | Compound | Potency | FP activity, negative = inhibition
21 | Cc1ccc(NC(=O)OCC(F)(F)C(F)F)cc1NC(=O)OCC(F)(F)C(F)F | inconclusive: 2.82 µM [quencher, side channel, partial curve, poor fit] | –
22 | COc1cc(Nc2nc(-c3ccc(OC)c(OC)c3)nc3ccccc23)cc(OC)c1 | inconclusive: 31.6 µM [quencher, side channel, partial curve, poor fit] | –
23 | Cc1cc(C)c(NC(=O)C(=O)NCCc2csc(-c3ccc(F)cc3)n2)c(C)c1 | – | inactive: -1.03%
24 | Cc1cccc(C)c1NC(=O)C1(N2C(=O)CC2c2ccccc2)CCCCC1 (stereo not given) | inconclusive: 50.1 µM [inhibitor, single point] | –
25 | CNCCCOc1cc(C)cc(C)c1C | inconclusive: 35.5 µM [inhibitor, partial curve] | –
26 | Oc1sc(C=Nc2ccccc2)c2ccccc12 | – | inactive: -1.4%
27 | O=C(O)CNC(=O)CC1S/C(=N/N=C/c2ccccc2O)NC1=O (stereo not given) | inconclusive: 5.01 µM [inhibitor, partial curve, poor fit] | –
28 | Cc1cccc(C)c1OCC(=O)N(Cc1ccc(Cl)cc1)C1CCS(=O)(=O)C1 (stereo not given) | inconclusive: 39.8 µM [inhibitor, partial curve, poor fit] | –
29 | COc1ccc(NC(=O)COc2ccccc2Cc2ccccc2)cn1 | inconclusive: 28.2 µM [inhibitor, single point] | –
30 | COc1ccc(CN2CCN(C3CCSCC3)CC2CCO)c(C)c1C (stereo not given) | – | inactive: 6.93%
31 | Cc1ccc2c(c1)C(c1ccccc1)N(C(=O)c1ccc(S(=O)(=O)N3CCCCC3)cc1)CC(=O)N2 (stereo not given) | – | inactive: 1.89%
32 | CCN(CC)CCNCC1C(=O)O[C@@H]2C[C@@]3(C)CCC[C@H](C)C3=C[C@H]12 (stereo not given in full) | – | inactive: 0.284%
33 | Cc1ccccc1N1C(=O)c2ccccc2N2C(=O)c3ccccc3C12 (stereo not given) | – | inactive: -5.75%
34 | NC(=O)c1cc(S(=O)(=O)NCCc2ccccc2)cs1 | inconclusive: 3.55 µM [inhibitor, partial curve, poor fit] | –
35 | O=C(/C=C/c1ccc(Br)cc1)c1ccc(NC2=NCCCS2)cc1 | inconclusive: 28.2 µM [inhibitor, partial curve] | –
36 | O=C1c2ccccc2-c2onc3ccc(NCc4ccco4)c1c23 | inconclusive: 28.2 µM [inhibitor, single point] | –
37 | NC(=O)c1ccccc1O | inconclusive: 31.6 µM [inhibitor, partial curve, poor fit] | –
38 | COCCNC(=O)c1ccc2c(=O)n(CCOC)c(SCC(=O)c3c[nH]c4ccccc34)nc2c1 | inconclusive: 28.2 µM [fluorescent, side channel, single point] | –
39 | Cc1ccc(CCNC(=O)c2ccc(CNS(=O)(=O)c3ccccc3)cc2)cc1 | inconclusive: 31.6 µM [quencher, side channel, single point] | –
40 | O=C(CN1C(=O)/C(=C/c2cccc(Br)c2)SC1=S)Nc1cccnc1 | inconclusive: 31.6 µM [fluorescent, side channel, partial curve, poor fit] | –

Three compounds from above, sorted by SMILES length, ascending.
Row | Compound | Potency | FP activity, negative = inhibition
16 | CCCc1cc(-n2ccnc2)n2c(nc3ccccc32)c1C#N | inconclusive: 31.6 µM [fluorescent, side channel, single point] | –
14 | Cc1cnccc1CNC(=O)CC1C(=O)NCCN1CC(C)(C)C (stereo not given) | inconclusive: 50.1 µM [inhibitor, single point] | –
22 | COc1cc(Nc2nc(-c3ccc(OC)c(OC)c3)nc3ccccc23)cc(OC)c1 | inconclusive: 31.6 µM [quencher, side channel, partial curve, poor fit] | –
